In one assay the target is T1, HA-tagged rat MOPr (Rattus norvegicus, UniProt P33535).
T1 construct: gene Oprm1
Nature of the assay: cell-based.

Sequences of proteins named here, by UniProt entry; tags and fusion partners are left off.
UniProt P33535, whole entry, looked up: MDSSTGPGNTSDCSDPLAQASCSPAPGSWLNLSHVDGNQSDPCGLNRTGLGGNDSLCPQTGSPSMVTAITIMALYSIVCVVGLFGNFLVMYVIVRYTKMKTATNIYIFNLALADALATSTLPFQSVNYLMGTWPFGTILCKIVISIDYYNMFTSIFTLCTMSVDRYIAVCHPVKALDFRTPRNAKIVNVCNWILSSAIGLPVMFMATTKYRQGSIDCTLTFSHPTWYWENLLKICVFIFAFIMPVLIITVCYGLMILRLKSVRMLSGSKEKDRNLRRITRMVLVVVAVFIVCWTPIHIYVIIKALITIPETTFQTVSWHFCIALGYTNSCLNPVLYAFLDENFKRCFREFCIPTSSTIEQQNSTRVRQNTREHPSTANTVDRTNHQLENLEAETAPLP

Assay [1] concerns the target T2, rat MOPr-yellow fluorescent protein (YFP) (Rattus norvegicus, UniProt P33535).
T2 construct: gene Oprm1

By EC50 is commonly meant the midpoint of the concentration-response curve. A lower EC50 goes with greater potency. As to `CO[C@]12CC[C@@]3(C[C@@H]1[C@](C)(O)C(C)(C)C)[C@H]1Cc4ccc(O)c5c4[C@@]3(CCN1CC1CC1)[C@H]2O5` [buprenorphine], the figures for the EC50 (on HA-tagged rat MOPr; in assay [1]) were 0.283 ± 0.232 µM and ~ 100 nM, respectively.

(Values after PMC5472181 (Journal of Molecular Biology, 2017).)
